We go through 105 sequences from PubChem BioAssay AID1347423 (Functional Genomics Laboratory (NCATS/FGL), 2020).

Among all 52,000 sequences or so, about 210 (0.4%) were called active.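 How the source made its calls: active means gene whose silencing raises cell survival under the drug, median off-target-corrected z-score across its silencing RNAs 2 or more; inactive means the rest.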 Some of the results follow.

The assay is described as follows: Resistance to Poly (ADP-Ribose) Polymerase inhibitor: Gene Identification via Genome-wide siRNA Screen. The settings on record: mouse BRCA2 R2336H ES cells, olaparib, CellTiter-Glo viability; hits give high values. The method in brief:
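Mouse BRCA2 R2336H ES cells were reverse-transfected with siRNA (20 nM final), treated at 48 h with 500 nM olaparib, and read by CellTiter-Glo after 72 h. Scores: MAD-based z per siRNA, median per gene, seed off-target correction.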
On the technique in general: ATP-based viability assays read luminescence as a measure of living cells.
For AGUCAUGAAGCAAAUGAUUTT against Olfr900, the z-score is inactive: -0.439.

Regarding CCUAUACAUGCUACUGAACTT against Itga9, the z-score was inactive: -0.599.

Take GGCCAAAUAACCACUGUGGTT against Lsm10: the z-score was inactive: -0.183.

For GGUUCUUUUAUGGAUGACATT against Prkaa2, the z-score was inactive: -1.15.

As to GGUAGUAAGUGGCAGUCCUTT against Zic5, the z-score was inactive: -1.04.

As for GGAGGUUUUGAAAUAGUCATT against Rbbp2, the z-score was inactive: 1.32.

GCCGACAGCUCCUUUAACUTT against Scamp4: the z-score was inactive: -0.545.

Turning to GGACCUGGAGAAAGUCAAGTT against Pacsin1, the z-score is inactive: 0.925.

Consider “GGAGCUCAAAGACAAAGAATT against 4921528I01Rik”, for which the z-score is inactive: 0.392.

As to CCCUAUGUCCGUUCCAAGGTT against Rpl18, the z-score is inactive: -1.23.

As for GCCAAGGUAGAAUCUUGCCTT against Gsdmdc1, the z-score was inactive: 1.22.

Turning to GAACCAGACUAAGAACUGUTT against Cox6b, the z-score was inactive: 0.962.

On to “CGGCCAUUAACUCAUGCAATT against 1110021N19Rik”, for which the z-score was inactive: 0.567.

In the case of GCAAUAAGCACCUUCCAUUTT against Gltp, the z-score was inactive: -0.47.

With CGUGGGCCUAUGCUUGUCATT against Tsc1, the z-score was inactive: -0.641.

As for GGAUUUCAAGGGAAUUUGATT against Wbp4, the z-score is inactive: 0.206.

On to GCACCAGCUCUUUUGAUAUTT against BC016226, for which the z-score was inactive: -0.716.

Turning to GCAAGCUUUUUUGAAGCAGTT against Ppil4, the z-score is inactive: -1.76.

GGCACGUGAUAAAGGGUUCTT against Pcdha7: the z-score was inactive: 2.05.

Regarding GCUCUUCAAUAAUAUGUCATT against Cdh26, the z-score was inactive: 0.301.

In the case of GGUUUCUUCAUUUGUUUGCTT against Syt2, the z-score is inactive: -1.09.

GGACUGAAAUGUCUUAGACTT against Sepw1: the z-score was inactive: -0.0243.

For the sequence GGCCUAGACAUACAUGAAATT against Bnip3l, the z-score was inactive: 2.36.

Consider GGCCCAAACCUUAAAGUCCTT against Smyd4, for which the z-score was inactive: -0.296.

Regarding GCAGCUGAAUACAGUCUGCTT against Nalp9c, the z-score is inactive: -0.0273.

“GCGCAGAUACCUGUUUGUUTT against 1110020A09Rik”: the z-score is inactive: 0.626.

As for GGAUUCAGAGAAAGAAAACTT against Azi2, the z-score is inactive: 0.0998.

On to GCCCGAUGACACGAGGAUUTT against Zfp39, for which the z-score is inactive: 1.33.

For CCUAUGGCCGACGAUCAUGTT against BC034834, the z-score is inactive: -1.38.

Consider GCACCUGGAGUACAUAAAATT against Sh2d1a, for which the z-score was inactive: -1.85.

GGAACAAGCCAGGCACAUATT against Mrpplf4: the z-score was inactive: -0.227.

In the case of GGAAGACUUGAGAAAUCACTT against Coro1c, the z-score is inactive: 1.8.

Take “GGCUUAUGACGAAUUAGUCTT against D130059P03Rik”: the z-score was inactive: 0.338.

For the sequence GGAAACGAUGACAUUUCAATT against Pnrc2, the z-score is inactive: 0.254.

For CGAGCAACCACUGAUCAAGTT against Grap, the z-score is inactive: -0.253.

For the sequence GGACUCAGAUAUCUUUCAGTT against Adck1, the z-score was inactive: -0.717.

Consider CCUCUUCGGGAAAAUUCUATT against Dao1, for which the z-score is inactive: -0.527.

On to GCUUCGGCAUCGAUCAGAUTT against Tlx2, for which the z-score was inactive: -0.874.

Turning to GGCACACUUGAGAAGACACTT against Cul5, the z-score is inactive: 2.51.

Turning to GGUCCAGUGAAAUAAUAUCTT against Orc3l, the z-score was inactive: 0.619.

On to CCAGCAAACUGUUGAUCCCTT against Oit3, for which the z-score is inactive: 0.739.

For the sequence GGAAGAAAGAUUCUCACUGTT against Entpd3, the z-score was inactive: -0.758.

With GGUGAAAGACCAAAGAAACTT against Gpatc1, the z-score is inactive: -1.15.

Regarding “GAGCAGAGCCAAAUCAAAGTT against 1700023M09Rik”, the z-score is inactive: -0.566.

In the case of GGCCCUUUGACCUCAAGAATT against Myh7, the z-score is inactive: 0.0809.

For GGACAAACUAUGAAAACAGTT against Ube2v2, the z-score is inactive: -0.794.

As for GCUGGGCUUUCCAAGUUACTT against Tomm20, the z-score was inactive: 0.738.

For GGGACUUUAAGAAAAACUATT against Sparcl1, the z-score is inactive: 0.688.

For GGAGGACUACAGAAAGCCUTT against Olfr1167, the z-score is inactive: 1.62.

With GGAGGAUGAUGAGGAGGAUTT against Ppp1r1b, the z-score was inactive: -1.2.

“GCCUAUUGGCCUGAUAUGUTT against A530099J19Rik”: the z-score was inactive: 1.37.

For CCUGAUCAUGUUGAAGGAATT against Ktn1, the z-score was inactive: -1.17.

Consider GGACUACUGAAUUCUUUUATT against Pvrl2, for which the z-score is inactive: 1.31.

Consider GCAUUAACUGCAUUGAGCATT against Nov, for which the z-score was inactive: 0.365.

GGAAAUCCUCAGACAAAUGTT against Pdc: the z-score was inactive: -0.4.

As for GGGAAUGAGCUUUUGCCUATT against Akr1c18, the z-score is inactive: 2.19.

Regarding GGGAAGAUGUGAGAAACUGTT against Xpnpep2, the z-score was inactive: 0.0956.

Regarding GGUUGAAUCAGAAAAAUUCTT against Gbp4, the z-score is inactive: 0.75.

As to GGCGAUCAGAGUUCAGGUATT against Hps1, the z-score is inactive: 1.4.

Consider “GGAGAAGGUUGCUGUAAAATT against 1700012A03Rik”, for which the z-score is inactive: -0.567.

On to GCUAAUCCCAACAUGCCUGTT against Pum1, for which the z-score is inactive: -0.399.

With “GGAGUACAGAAGUAAUCUCTT against 2310065K24Rik”, the z-score was inactive: -0.302.

On to GGAUAUCAGUGAUGACCAUTT against Uckl1, for which the z-score is inactive: 1.44.

As to GCCUUCACAGAAGAAGCAUTT against Doc2a, the z-score is inactive: -0.689.

For GGUUGACUAUACUGAAAAGTT against Bat2, the z-score was inactive: 0.649.

Regarding GGUCCUGUUUCCAAGAGUATT against Cnih, the z-score was inactive: 0.0606.

Turning to GCUUUUUAGAAUCUCCGAATT against Sel1h, the z-score was inactive: 0.168.

With GGAAACUGAGACAGGCCUUTT against Pgls, the z-score was inactive: 0.111.

On to “GCGAUUCGUCUUCGAGUUCTT against 4930430E16Rik”, for which the z-score is inactive: -0.275.

For the sequence GGCUCUGCGCAUCACCAAUTT against Nfasc, the z-score was inactive: 1.44.

For the sequence CGUGGUAGUGAAAAUUGAGTT against Xbp1, the z-score is inactive: -0.285.

Regarding “GGAUUCAUCAGACAUUAAGTT against 4930503L19Rik”, the z-score is inactive: 0.595.

Take CCCGGGUGCAAAACAUUCATT against Mlf1ip: the z-score is inactive: -1.34.

Take GGAUAACACCACCAACUAUTT against Akap8l: the z-score was inactive: 1.

Regarding CGAUGUUGAGGGAUUAUCUTT against BC057893, the z-score is inactive: 0.475.

On to GCUUCAGCUCAACUCCGCATT against Vps33a, for which the z-score was inactive: 1.83.

As for GGAAGUAAUCAAUUUGGUGTT against Epm2aip1, the z-score is inactive: 1.48.

GCAGAAUGAGUUCAGACGATT against Mgmt: the z-score was inactive: -1.94.

Take CCUAUGGGUGUCUAUACCUTT against AI649392: the z-score was inactive: 1.18.

In the case of GGAGAAAAGGUGUUUCGACTT against Ddefl1, the z-score is inactive: 0.0769.

As to GCAAAUAUAUGUUUGGCUGTT against Snap25, the z-score was inactive: 0.769.

Take “GCAAUGGACACGAUUCUUATT against 1810036I24Rik”: the z-score was inactive: 0.88.

Consider GGUCCAUCAUGAGGUCUCUTT against Phkg2, for which the z-score is inactive: -0.13.

GGCCUUGUAUCUCUUUACATT against Hdgf: the z-score was inactive: 0.107.

Regarding “GGUGAUGGAGAAGAGAAGATT against 3110001A13Rik”, the z-score is inactive: -2.6.

For GGAGUCUUCUCAAUUUGACTT against Olfr1105, the z-score was inactive: -0.434.

As for GCUCUUAGGACAGACAGACTT against Dnajb12, the z-score is inactive: -0.203.

For the sequence “CCACUGAACUUAACCUUGGTT against B930041F14Rik”, the z-score was inactive: 1.2.

As to GGUUGGCCUAAUAGUGCAUTT against Cbr1, the z-score is inactive: 0.445.

With CCAUAUCCUUAACCUUAGGTT against Gdi1, the z-score was inactive: 0.299.

Turning to GUUGAUGAUAGAUCGUCAATT against LOC382106, the z-score is inactive: 1.17.

In the case of GGCCAGUCAAGGUUGGAUUTT against Gpr152, the z-score was inactive: -0.962.

With GGUCAUCAACGUGCUAGAGTT against Nucb1, the z-score was inactive: -1.24.

Regarding “GGAAUUCCACGGUAUUCACTT against A130007F10Rik”, the z-score is inactive: 2.04.

As for “GGCUAUGUUUCAGAAUAUGTT against 4933406N12Rik”, the z-score is inactive: -0.0316.

With GGUGUUUUAUAUGAACUGUTT against BC020077, the z-score is inactive: -0.66.

With GGAAGAUCAAGGGACUCAUTT against Serpina3c, the z-score was inactive: -0.281.

With GGCAUUGCUUUGCUGGUCUTT against Usmg5, the z-score was inactive: 1.34.

As to “GGAGCGAGAGUAUCUAUUGTT against 2410019G02Rik”, the z-score was inactive: -2.54.

For “GGAGGAAGAAACAGAACCATT against A930021G21Rik”, the z-score was inactive: -2.36.

In the case of “GCGUGUAUCUAGUGAAAUUTT against 4930524B15Rik”, the z-score is inactive: -1.68.

GGCUGAAACAAGAACGUGATT against Bat2: the z-score was inactive: 0.976.

Consider GGUGAAGCUGAAGAAGUACTT against Chst12, for which the z-score is inactive: -0.734.

With GGAGAAAAAGGGAAAGAAUTT against Dlx4, the z-score is inactive: -1.52.

Turning to GGGUACACUCCAUGCUUAGTT against Tcap, the z-score was inactive: 1.73.
